The subject of data set [1] is ischiadic nerve of rats. The data set is described as follows: Local analgesic effect (method of Truant and d'Amato), motor paralysis and its duration. Type of data set: in vivo. Conditions: referred to Lidocaine. The source says:
The local analgesic effect was investigated on the ischiadic nerve of rats by means of the method of Truant and d'Amato (Truant, A.P. and Wiedling, S.: Acta Chirurg. Scand. 116, 351 /1958/). Lidocaine served as reference substance.
In Table I below, the relative efficiency referred to Lidocaine and the duration of the effect on application of 0.5 % and 1.0 % concentrations of Lidocaine are given. […]

The nature of data set [2]: in vivo. The settings on record: oral administration, Table I.

For `CCN(CC)CC(=O)Nc1c(C)cccc1C` [Lidocaine, reference compound], the Relative efficiency in data set [1] is on record as 1.0. The LD50 in data set [2] turned out to be 220 mg/kg.
